At least one peptide structure holds a part that was inferred or is arguable (an end, a ring closure or a residue). No end group written: not given here.
How the values were obtained:
[1] = test system: Monoclonal antibody 10D207; assay: ELISA reactivity of synthetic peptides with monoclonal antibody 10D207; type: binding; details: reciprocal of the dilution giving a 50% end point
Procedure: (§1) The reactivity and specificity of the synthetic peptides were determined by ELISA using either anti-VP7 monospecific VP7 serum or monoclonal antibodies specific for the various regions of VP7 and by adsorption blocking assays. […] As shown in the table, while all of the peptides were immunoreactive with the antiserum, only the peptides representing positions 247-259 and 275-295 were specifically immunoreactive with monoclonals directed to particular determinants.
(§2) ^a Antibody titers were determined by ELISA and are expressed as the
(§3) reciprocal of the dilution giving a 50% end point.

[2] = test system: Monoclonal antibody 11D12-6; assay: ELISA reactivity of synthetic peptides with monoclonal antibody 11D12-6; type: binding; details: reciprocal of the dilution giving a 50% end point
Procedure: as §1, §2, §3

[3] = test system: Monospecific anti-glycoprotein (VP7) serum; assay: ELISA reactivity of synthetic peptides with monospecific anti-VP7 serum; type: binding; details: reciprocal of the dilution giving a 50% end point
Procedure: as §1, §2, §3

[4] = test system: Monoclonal antibody 11D10-4; assay: ELISA reactivity of synthetic peptides with monoclonal antibody 11D10-4; type: binding; details: reciprocal of the dilution giving a 50% end point
Procedure: as §1, §2, §3

[5] = test system: Monoclonal antibody 4B5-5; assay: ELISA reactivity of synthetic peptides with monoclonal antibody 4B5-5; type: binding; details: reciprocal of the dilution giving a 50% end point
Procedure: as §1, §2, §3

[6] = test system: virus attachment to MA104 cells; assay: Adsorption blocking assay: inhibition of attachment of virus to MA104 cells; type: cell-based; details: FIG. 5
Procedure: as §1

[7] = test system: anti-VP6 monospecific serum and monoclonal antibodies 1D7, 1B4, 1B9 and 1D10; assay: ELISA reactivity of 40-60 peptide with anti-VP6 serum and monoclonal antibodies; type: binding
[8] = test system: Bovine rotavirus strain C486; assay: Attachment of 35S-labeled virus to MA-104 cells; type: cell-based; details: at least 30 μg (total) (300 μg/ml dilution) of peptide
[9] = test system: human group O Rhesus-positive erythrocytes; assay: Hemagglutinating activity; type: cell-based; details: two-fold dilutions from 500 μg/ml; 2 hr
[10] = test system: rotavirus strain C486; assay: Plaque assay on MA-104 cells pre-incubated with peptide; type: cell-based; details: MA-104 cells incubated with 30-600 μg/ml peptide 1 hr, then 63 pfu
[11] = test system: Bovine rotavirus strain C-486 (serotype 6); assay: Protection of neonatal mice of immunized dams against challenge with BRV; type: in vivo; set-up: key to Diarrheal Score Following Challenge with Rotavirus Isolate BRV: 0: no sign of diarrhea in live mice, or on necropsy; +: no external signs of diarrhea but semi-liquid colon contents at autopsy; ++: fluid was apparent on palpation of the abdomen and the colon was filled with liquid feces and gas; +++: the external anal region was soiled with feces and intestinal fluid was present on palpation; ++++: liquid feces were present around the anal region and on palpation of the abdomen intestinal fluid was present and oozed from the anus; severe dehydration, internal liquid content in colon and caecum and distention due to accumulation of gas
[12] = test system: simian rotavirus SA11 (serotype 3); assay: Protection of neonatal mice of immunized dams against challenge with SA11; type: in vivo; set-up: key to Diarrheal Score Following Challenge with Rotavirus Isolate SA-11: 0: no sign of diarrhea in live mice, or on necropsy; +: no external signs of diarrhea but semi-liquid colon contents at autopsy; ++: fluid was apparent on palpation of the abdomen and the colon was filled with liquid feces and gas; +++: the external anal region was soiled with feces and intestinal fluid was present on palpation; ++++: liquid feces were present around the anal region and on palpation of the abdomen intestinal fluid was present and oozed from the anus; severe dehydration, internal liquid content in colon and caecum and distention due to accumulation of gas
[13] = test system: human rotavirus DS-1 (serotype 1); assay: Protection of neonatal mice of immunized dams against challenge with DS-1; type: in vivo; details: plasma xylose 72 hours postchallenge, 2 hours after oral xylose; non-challenged control 119
[14] = dams 50 μg i.m. three times, pups challenged at 7 days, about 10^4 pfu, scored up to 72 hours

## DEANKKLGPRENVA [p(179-183)-(252-259), Asp-Glu-Ala-Asn-Lys-Lys-Leu-Gly-Pro-Arg-Glu-Asn-Val-Ala]
[1]
  Antibody titer (ELISA), monoclonal antibody 10D207 with synthetic peptide: 50
[2]
  Antibody titer (ELISA), monoclonal antibody 11D12-6 with synthetic peptide: 50
[3]
  Antibody titer (ELISA), monospecific anti-glycoprotein (VP7) serum with synthetic peptide: 5,000
[4]
  Antibody titer (ELISA), monoclonal antibody 11D10-4 with synthetic peptide: 250
[5]
  Antibody titer (ELISA), monoclonal antibody 4B5-5 with synthetic peptide: 50

## PTTAPQTERMMRINWKKWWQV [p275-295]
[1]
  Antibody titer (ELISA), monoclonal antibody 10D207 with synthetic peptide: 10,000
[2]
  Antibody titer (ELISA), monoclonal antibody 11D12-6 with synthetic peptide: 8,500
[6]
  ability to inhibit attachment of virus to MA104 cells: able to block virus attachment
[3]
  Antibody titer (ELISA), monospecific anti-glycoprotein (VP7) serum with synthetic peptide: 1,250
[4]
  Antibody titer (ELISA), monoclonal antibody 11D10-4 with synthetic peptide: 100
[5]
  Antibody titer (ELISA), monoclonal antibody 4B5-5 with synthetic peptide: 50

## TMNGNEFQTGGIGNLPIRNWNGC [Peptide 40-60]
[7]
  reactivity in ELISA with anti-VP6 monospecific serum and monoclonal antibodies: reactive
[7]; ELISA
  reciprocal dilutions of monoclonals 1D7, 1B4, 1B9 and 1D10 immunoreactive with the peptide: 5,000-8,000

## CGASRNIVYTRA [Peptide 240-248, Cys-Gly-Ala-Ser-Arg-Asn-Ile-Val-Tyr-Thr-Arg-Ala]
[8]
  uptake of 35S-labeled virus by MA-104 cells: essentially no uptake of labeled virus
[9]
  concentration producing hemagglutination: 500 µg/mL
[10]
  prevention of plaque formation: effective in preventing plaque formation

## PTTAPQTERMMRINWKKWWQVC [Peptide 275-295C]
[11]; [14]
  Diarrheal Score Following Challenge with Rotavirus Isolate BRV: +++
[11]; plasma xylose 72 hours postchallenge, 2 hours after oral xylose, non-challenged control 120
  Xylose Absorption, challenge BRV: 59
[12]; [14]
  Diarrheal Score Following Challenge with Rotavirus Isolate SA-11: ++++
[12]; plasma xylose 72 hours postchallenge, 2 hours after oral xylose, non-challenged control 119
  Xylose Absorption, challenge SA-11: 53
[13]
  Xylose Absorption, challenge DS-1: 60
